# According to the supplement of paper PMC10849652:
# Chains of the proteins cited; added tags and fusions are not shown. Lines headed by an entry give the natural chain unless they say otherwise; changes in a name come on top.
# UniProt Q5T6V5: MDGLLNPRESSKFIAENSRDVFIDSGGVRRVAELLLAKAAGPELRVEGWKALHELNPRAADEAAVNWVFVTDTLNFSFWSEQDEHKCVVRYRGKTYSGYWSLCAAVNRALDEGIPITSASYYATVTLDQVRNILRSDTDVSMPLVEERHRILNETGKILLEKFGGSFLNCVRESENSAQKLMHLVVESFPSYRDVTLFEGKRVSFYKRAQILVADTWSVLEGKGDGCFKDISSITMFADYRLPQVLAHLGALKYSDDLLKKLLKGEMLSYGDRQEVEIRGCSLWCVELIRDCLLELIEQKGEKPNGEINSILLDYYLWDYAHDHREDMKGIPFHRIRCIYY
# UniProt P40121: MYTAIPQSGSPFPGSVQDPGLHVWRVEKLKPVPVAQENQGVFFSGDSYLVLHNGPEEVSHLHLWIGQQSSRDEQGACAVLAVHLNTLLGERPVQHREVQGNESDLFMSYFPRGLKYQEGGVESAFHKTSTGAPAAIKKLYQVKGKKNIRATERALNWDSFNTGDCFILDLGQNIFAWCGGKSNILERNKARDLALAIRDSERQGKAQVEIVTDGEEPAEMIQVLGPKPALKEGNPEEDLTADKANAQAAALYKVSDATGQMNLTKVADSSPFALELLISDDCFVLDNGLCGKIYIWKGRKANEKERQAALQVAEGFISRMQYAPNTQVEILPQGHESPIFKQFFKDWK
# UniProt O43852: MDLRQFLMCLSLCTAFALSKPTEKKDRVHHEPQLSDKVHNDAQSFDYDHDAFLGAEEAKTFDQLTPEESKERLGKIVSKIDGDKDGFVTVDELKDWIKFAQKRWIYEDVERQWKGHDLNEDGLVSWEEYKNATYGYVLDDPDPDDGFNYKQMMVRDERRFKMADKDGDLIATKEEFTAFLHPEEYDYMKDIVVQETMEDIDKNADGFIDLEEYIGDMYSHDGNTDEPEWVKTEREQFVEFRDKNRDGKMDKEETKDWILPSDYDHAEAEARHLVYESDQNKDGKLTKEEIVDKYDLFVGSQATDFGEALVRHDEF
# UniProt Q14012: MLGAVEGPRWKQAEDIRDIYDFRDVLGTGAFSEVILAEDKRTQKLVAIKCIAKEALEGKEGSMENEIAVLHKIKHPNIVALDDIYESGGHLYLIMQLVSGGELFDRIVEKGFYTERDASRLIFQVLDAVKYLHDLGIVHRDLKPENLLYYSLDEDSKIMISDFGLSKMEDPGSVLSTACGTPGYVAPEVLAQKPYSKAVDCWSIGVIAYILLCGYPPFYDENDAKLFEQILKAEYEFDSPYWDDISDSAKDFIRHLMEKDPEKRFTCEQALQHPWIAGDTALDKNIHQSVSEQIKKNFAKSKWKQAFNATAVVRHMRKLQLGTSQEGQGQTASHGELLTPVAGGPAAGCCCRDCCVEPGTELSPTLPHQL
# UniProt Q96N11, whole entry, looked up: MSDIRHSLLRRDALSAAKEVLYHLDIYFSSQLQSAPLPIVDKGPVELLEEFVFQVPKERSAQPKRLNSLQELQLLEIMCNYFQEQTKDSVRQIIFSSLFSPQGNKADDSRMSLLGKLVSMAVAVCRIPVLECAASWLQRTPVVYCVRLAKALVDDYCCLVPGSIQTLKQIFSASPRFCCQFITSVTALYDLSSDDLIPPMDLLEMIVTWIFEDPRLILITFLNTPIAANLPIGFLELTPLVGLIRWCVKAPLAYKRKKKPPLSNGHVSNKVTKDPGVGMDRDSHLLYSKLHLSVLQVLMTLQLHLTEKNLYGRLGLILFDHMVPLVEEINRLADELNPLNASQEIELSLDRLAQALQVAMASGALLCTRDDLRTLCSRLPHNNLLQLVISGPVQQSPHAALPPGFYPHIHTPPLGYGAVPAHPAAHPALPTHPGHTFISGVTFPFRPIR
# UniProt P22676: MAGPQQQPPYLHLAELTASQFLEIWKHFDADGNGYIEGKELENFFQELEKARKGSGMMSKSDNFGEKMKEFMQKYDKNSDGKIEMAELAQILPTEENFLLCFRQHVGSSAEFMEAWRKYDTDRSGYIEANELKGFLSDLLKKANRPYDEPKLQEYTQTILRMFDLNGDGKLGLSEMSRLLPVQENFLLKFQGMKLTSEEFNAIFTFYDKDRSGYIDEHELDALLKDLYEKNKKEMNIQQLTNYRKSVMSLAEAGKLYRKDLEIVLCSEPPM
# UniProt Q8IXQ3: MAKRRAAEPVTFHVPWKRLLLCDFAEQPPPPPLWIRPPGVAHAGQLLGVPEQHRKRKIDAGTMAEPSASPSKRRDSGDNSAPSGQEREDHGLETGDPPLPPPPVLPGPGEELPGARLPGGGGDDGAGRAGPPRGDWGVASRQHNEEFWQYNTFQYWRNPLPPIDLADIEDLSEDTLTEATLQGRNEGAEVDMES
# UniProt P35219: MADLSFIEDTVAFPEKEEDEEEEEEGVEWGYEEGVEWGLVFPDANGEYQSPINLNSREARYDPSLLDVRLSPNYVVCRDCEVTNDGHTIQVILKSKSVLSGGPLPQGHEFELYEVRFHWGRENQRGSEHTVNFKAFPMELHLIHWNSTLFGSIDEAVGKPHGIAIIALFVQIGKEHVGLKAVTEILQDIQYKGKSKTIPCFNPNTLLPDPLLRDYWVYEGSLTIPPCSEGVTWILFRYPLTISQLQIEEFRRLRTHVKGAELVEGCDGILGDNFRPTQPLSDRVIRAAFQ
# UniProt O75808: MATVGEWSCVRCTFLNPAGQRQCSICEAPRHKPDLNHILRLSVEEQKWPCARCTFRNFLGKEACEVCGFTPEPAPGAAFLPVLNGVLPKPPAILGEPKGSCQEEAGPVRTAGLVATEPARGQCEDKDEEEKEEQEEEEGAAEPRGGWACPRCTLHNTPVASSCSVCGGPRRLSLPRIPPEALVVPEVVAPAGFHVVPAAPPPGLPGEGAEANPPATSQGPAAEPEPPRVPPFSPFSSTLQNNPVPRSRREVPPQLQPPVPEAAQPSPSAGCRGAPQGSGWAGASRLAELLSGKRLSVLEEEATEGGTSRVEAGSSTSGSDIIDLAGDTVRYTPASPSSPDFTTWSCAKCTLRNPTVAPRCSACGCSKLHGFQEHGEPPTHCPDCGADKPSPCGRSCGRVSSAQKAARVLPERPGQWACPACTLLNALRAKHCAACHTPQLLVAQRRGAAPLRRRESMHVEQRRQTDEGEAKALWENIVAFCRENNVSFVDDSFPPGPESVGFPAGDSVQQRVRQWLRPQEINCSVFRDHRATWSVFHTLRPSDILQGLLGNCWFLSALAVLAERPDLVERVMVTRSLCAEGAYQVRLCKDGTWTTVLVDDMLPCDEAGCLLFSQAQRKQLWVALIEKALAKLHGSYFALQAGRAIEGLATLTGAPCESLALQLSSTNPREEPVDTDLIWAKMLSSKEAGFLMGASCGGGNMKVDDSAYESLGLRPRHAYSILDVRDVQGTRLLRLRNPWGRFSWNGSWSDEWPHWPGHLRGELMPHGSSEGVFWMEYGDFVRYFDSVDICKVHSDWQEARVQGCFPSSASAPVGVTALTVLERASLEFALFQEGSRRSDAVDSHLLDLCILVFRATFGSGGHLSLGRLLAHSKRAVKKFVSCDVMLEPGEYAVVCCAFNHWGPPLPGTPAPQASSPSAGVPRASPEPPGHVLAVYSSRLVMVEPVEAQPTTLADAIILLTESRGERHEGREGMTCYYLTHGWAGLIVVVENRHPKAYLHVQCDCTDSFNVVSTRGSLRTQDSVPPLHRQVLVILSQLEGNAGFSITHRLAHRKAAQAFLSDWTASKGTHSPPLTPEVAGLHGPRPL
# UniProt Q96B23: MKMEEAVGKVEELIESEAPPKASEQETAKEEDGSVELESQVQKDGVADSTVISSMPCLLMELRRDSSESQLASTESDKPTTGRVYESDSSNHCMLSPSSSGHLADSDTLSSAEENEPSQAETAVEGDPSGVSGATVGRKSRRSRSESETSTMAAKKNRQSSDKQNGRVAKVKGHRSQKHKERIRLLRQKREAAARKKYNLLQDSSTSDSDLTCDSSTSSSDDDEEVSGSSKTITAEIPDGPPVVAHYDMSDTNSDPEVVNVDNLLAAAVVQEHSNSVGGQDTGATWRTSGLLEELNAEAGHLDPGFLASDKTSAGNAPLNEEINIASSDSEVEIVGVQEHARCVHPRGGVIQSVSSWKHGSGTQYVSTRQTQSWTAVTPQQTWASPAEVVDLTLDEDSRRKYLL
# UniProt Q9Y376: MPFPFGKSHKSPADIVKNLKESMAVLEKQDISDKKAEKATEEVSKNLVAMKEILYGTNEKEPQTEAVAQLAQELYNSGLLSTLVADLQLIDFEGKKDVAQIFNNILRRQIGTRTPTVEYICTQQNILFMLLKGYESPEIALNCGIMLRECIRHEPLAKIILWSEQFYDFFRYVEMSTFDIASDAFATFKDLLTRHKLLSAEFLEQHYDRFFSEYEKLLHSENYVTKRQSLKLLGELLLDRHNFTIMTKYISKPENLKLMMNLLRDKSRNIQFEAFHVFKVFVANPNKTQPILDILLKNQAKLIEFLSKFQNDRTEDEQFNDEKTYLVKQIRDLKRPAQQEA
# UniProt Q5T5Y3: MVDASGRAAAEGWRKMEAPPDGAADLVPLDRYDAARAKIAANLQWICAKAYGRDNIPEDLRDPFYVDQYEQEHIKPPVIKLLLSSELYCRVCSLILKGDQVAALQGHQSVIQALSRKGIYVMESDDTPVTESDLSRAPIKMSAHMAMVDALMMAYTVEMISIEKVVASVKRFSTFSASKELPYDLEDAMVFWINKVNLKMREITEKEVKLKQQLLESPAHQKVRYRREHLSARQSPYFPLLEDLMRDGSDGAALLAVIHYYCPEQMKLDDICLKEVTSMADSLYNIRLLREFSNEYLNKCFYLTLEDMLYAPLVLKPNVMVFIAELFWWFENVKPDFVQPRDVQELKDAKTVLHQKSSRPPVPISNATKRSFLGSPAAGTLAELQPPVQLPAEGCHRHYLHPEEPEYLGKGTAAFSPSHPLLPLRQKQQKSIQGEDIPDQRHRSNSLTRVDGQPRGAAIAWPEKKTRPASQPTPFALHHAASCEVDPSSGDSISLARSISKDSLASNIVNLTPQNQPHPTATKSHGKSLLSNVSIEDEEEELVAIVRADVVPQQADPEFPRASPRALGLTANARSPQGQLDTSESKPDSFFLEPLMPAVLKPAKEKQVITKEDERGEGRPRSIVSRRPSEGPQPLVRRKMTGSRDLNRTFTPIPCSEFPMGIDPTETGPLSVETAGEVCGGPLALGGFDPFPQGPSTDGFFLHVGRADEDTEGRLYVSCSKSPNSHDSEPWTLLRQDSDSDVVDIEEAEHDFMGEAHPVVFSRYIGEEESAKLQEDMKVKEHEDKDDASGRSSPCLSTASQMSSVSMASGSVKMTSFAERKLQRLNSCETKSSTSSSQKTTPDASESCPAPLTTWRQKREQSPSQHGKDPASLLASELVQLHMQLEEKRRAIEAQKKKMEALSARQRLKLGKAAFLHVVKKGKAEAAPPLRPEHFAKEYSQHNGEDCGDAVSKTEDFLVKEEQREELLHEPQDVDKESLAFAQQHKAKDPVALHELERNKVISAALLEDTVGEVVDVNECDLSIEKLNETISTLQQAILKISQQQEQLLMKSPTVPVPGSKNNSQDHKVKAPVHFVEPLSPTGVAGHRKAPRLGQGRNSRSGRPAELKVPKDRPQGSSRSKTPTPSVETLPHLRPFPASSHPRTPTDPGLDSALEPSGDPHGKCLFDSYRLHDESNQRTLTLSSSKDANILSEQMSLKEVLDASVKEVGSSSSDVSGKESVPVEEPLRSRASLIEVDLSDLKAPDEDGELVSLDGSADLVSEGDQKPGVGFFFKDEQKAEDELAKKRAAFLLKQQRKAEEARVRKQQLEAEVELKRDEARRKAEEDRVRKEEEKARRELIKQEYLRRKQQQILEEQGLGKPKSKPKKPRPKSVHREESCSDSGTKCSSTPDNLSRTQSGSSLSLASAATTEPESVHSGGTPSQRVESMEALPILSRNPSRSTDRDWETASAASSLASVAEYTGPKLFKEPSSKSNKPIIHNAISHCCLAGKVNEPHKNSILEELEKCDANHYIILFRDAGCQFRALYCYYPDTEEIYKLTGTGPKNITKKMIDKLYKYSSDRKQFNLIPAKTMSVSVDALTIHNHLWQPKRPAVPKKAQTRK
# UniProt Q9NZ63: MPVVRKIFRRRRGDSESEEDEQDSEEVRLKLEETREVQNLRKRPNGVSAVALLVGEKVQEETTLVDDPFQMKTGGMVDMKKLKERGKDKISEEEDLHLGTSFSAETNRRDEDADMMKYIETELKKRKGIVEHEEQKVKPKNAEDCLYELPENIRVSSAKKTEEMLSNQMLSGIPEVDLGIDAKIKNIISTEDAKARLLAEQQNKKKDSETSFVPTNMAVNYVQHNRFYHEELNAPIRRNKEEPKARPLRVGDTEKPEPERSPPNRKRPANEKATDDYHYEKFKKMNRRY
# The other results are listed elsewhere or left out.
# How the values were obtained:
# Assay in all cases: log2 fold change, soluble protein after heating vs DMSO (PISA); higher = thermal stabilisation; K562 lysate, 10 uM; active = over 0.2 and 3.5 SD of the protein, either way, in both replicates (recomputed)
# alvocidib = compound: CN1CC[C@H](c2c(O)cc(O)c3c(=O)cc(-c4ccccc4Cl)oc23)[C@H](O)C1 [alvocidib]
# How it was run: (§1)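 Quantification was by TMTpro 16plex LC-MS/MS with equalised channel sums, applied to the supernatant after 21,000xg for 90 min. Samples were crude K562 extract at 1 mg/mL protein in PBS pH 7.4 with 1 mM MgCl2, treated with 10 μM compound for 30 min, heated for 3 min across 48°C-58°C, pooled and brought to 0.5% NP-40 at 4°C. Values are log-two fold changes in thermal stability relative to solvent controls, from duplicates.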
# Tubastatin A = compound: CN1CCc2c(c3ccccc3n2Cc2ccc(C(=O)NO)cc2)C1 [Tubastatin A]
# How it was run: as §1
# [1] = compound: CNC(=O)C1=CC=CC=C1NC2=NC(=NC=C2Cl)NC3=C(C=C(C=C3)N4CCOCC4)OC
# How it was run: as §1
# defactinib = compound: CNC(=O)c1ccc(Nc2ncc(C(F)(F)F)c(NCc3nccnc3N(C)S(C)(=O)=O)n2)cc1 [defactinib]
# How it was run: as §1
# [2] = compound: CNc1nc(-c2ccc3c(N)n[nH]c3c2)cc(N2C[C@@H](C(=O)NC3CCCCC3)CC[C@H]2C)n1
# How it was run: as §1
# encorafenib = compound: COC(=O)N[C@@H](C)CNc1nccc(-c2cn(C(C)C)nc2-c2cc(Cl)cc(NS(C)(=O)=O)c2F)n1 [encorafenib]
# How it was run: as §1
# [3] = compound: COC(=O)[C@H](CCSC)NC(=O)C1=C(C=C(C=C1)NC[C@H](CS)N)C2=CC=CC=C2
# How it was run: as §1
# alisertib = compound: COc1cc(Nc2ncc3c(n2)-c2ccc(Cl)cc2C(c2c(F)cccc2OC)=NC3)ccc1C(=O)O [alisertib]
# How it was run: as §1
# [4] = compound: COc1cc2nc(-c3cc(F)ccc3O)nc(N[C@@H]3CNC[C@H]3C(C)(C)O)c2cc1OC
# How it was run: as §1
# gefitinib = compound: COc1cc2ncnc(Nc3ccc(F)c(Cl)c3)c2cc1OCCCN1CCOCC1 [gefitinib]
# How it was run: as §1
# lapatinib = compound: CS(=O)(=O)CCNCc1ccc(-c2ccc3ncnc(Nc4ccc(OCc5cccc(F)c5)c(Cl)c4)c3c2)o1 [lapatinib]
# How it was run: as §1
# pictilisib = compound: CS(=O)(=O)N1CCN(Cc2cc3nc(-c4cccc5[nH]ncc45)nc(N4CCOCC4)c3s2)CC1 [pictilisib]
# How it was run: as §1
# crizotinib = compound: C[C@@H](Oc1cc(-c2cnn(C3CCNCC3)c2)cnc1N)c1c(Cl)ccc(F)c1Cl [crizotinib]
# How it was run: as §1
# [5] = compound: C[C@H](C1=CC=C(C=C1)C(=O)NC2=C3C=CNC3=NC=C2)N
# How it was run: as §1
# duvelisib = compound: C[C@H](Nc1ncnc2nc[nH]c12)c1cc2cccc(Cl)c2c(=O)n1-c1ccccc1 [duvelisib]
# How it was run: as §1
# gandotinib = compound: Cc1cc(Nc2cc(CN3CCOCC3)c3nc(C)c(Cc4ccc(Cl)cc4F)n3n2)n[nH]1 [gandotinib]
# How it was run: as §1
# tozasertib = compound: Cc1cc(Nc2cc(N3CCN(C)CC3)nc(Sc3ccc(NC(=O)C4CC4)cc3)n2)n[nH]1 [tozasertib]
# How it was run: as §1
# doramapimod = compound: Cc1ccc(-n2nc(C(C)(C)C)cc2NC(=O)Nc2ccc(OCCN3CCOCC3)c3ccccc23)cc1 [doramapimod]
# How it was run: as §1
# bafetinib = compound: Cc1ccc(NC(=O)c2ccc(CN3CC[C@H](N(C)C)C3)c(C(F)(F)F)c2)cc1Nc1nccc(-c2cncnc2)n1 [bafetinib]
# How it was run: as §1
# [6] = compound: Cc1cccc(CC(=O)N2CCc3c2ccc(-c2cn(C)c4ncnc(N)c24)c3F)n1
# How it was run: as §1
Target,log2 fold change (alvocidib),log2 fold change (Tubastatin A),log2 fold change [1],log2 fold change (defactinib),log2 fold change [2],log2 fold change (encorafenib),log2 fold change [3],log2 fold change (alisertib),log2 fold change [4],log2 fold change (gefitinib),log2 fold change (lapatinib),log2 fold change (pictilisib),log2 fold change (crizotinib),log2 fold change [5],log2 fold change (duvelisib),log2 fold change (gandotinib),log2 fold change (tozasertib),log2 fold change (doramapimod),log2 fold change (bafetinib),log2 fold change [6]
C9orf64 (UniProt Q5T6V5),inactive: 0.02,inactive: -0.036,inactive: -0.015,inactive: -0.026,inactive: -0.045,inactive: 0.034,inactive: -0.029,inactive: 0.012,inactive: -0.006,inactive: -0.006,inactive: -0.014,inactive: 0.004,inactive: -0.011,inactive: -0.015,inactive: 0.036,inactive: -0.013,inactive: 0.02,inactive: -0.004,inactive: -0.022,inactive: -0.018
CAPG (UniProt P40121),inactive: 0.012,inactive: 0.03,inactive: -0.045,inactive: -0.02,inactive: -0.016,inactive: -0.07,inactive: -0.022,inactive: -0.045,inactive: 0.005,inactive: -0.022,inactive: 0,inactive: -0.004,inactive: 0.003,inactive: -0.016,inactive: 0.007,inactive: -0.018,inactive: -0.01,inactive: -0.015,inactive: 0.003,inactive: 0.003
CALU isoform 3 (UniProt O43852),inactive: -0.034,inactive: -0.003,inactive: -0.016,inactive: -0.035,inactive: -0.006,inactive: -0.012,inactive: -0.018,inactive: 0.03,inactive: 0.016,inactive: 0.011,inactive: 0.014,inactive: 0.024,inactive: 0.017,inactive: -0.02,inactive: 0.003,inactive: 0.026,inactive: -0.044,inactive: -0.03,inactive: -0.011,inactive: 0.014
CAMK1 (UniProt Q14012),inactive: -0.074,inactive: 0,inactive: 0.067,inactive: 0.04,inactive: -0.036,inactive: -0.054,inactive: -0.032,inactive: 0.016,inactive: 0.029,inactive: -0.01,inactive: -0.037,inactive: -0.058,inactive: -0.078,inactive: -0.145,inactive: -0.042,inactive: 0.187,inactive: 0.05,inactive: -0.006,inactive: -0.047,active: 0.314
C7orf26 (UniProt Q96N11),inactive: 0.08,inactive: 0.005,inactive: 0.011,inactive: -0.065,inactive: 0.069,inactive: 0.005,inactive: 0.051,inactive: -0.244,inactive: 0.054,inactive: 0.219,inactive: -0.036,inactive: -0.115,inactive: -0.016,inactive: -0.057,inactive: 0.054,inactive: 0.014,inactive: -0.101,inactive: 0.096,inactive: -0.007,inactive: 0.123
CALB2 (UniProt P22676),inactive: -0.028,inactive: -0.022,inactive: -0.028,inactive: -0.062,inactive: 0.034,inactive: -0.014,inactive: -0.003,inactive: -0.008,inactive: -0.01,inactive: 0.112,inactive: 0.009,inactive: -0.07,inactive: 0.01,inactive: -0.041,inactive: 0.031,inactive: 0.092,inactive: 0.056,inactive: 0.003,inactive: 0.082,inactive: -0.007
BZW1 isoform 3 (UniProt Q7L1Q6),inactive: 0.011,inactive: -0.051,inactive: -0.023,inactive: 0.014,inactive: -0.057,inactive: 0.011,inactive: -0.029,inactive: 0.017,inactive: 0.004,inactive: -0.018,inactive: -0.033,inactive: 0.018,inactive: 0.017,inactive: -0.054,inactive: 0.007,inactive: -0.091,inactive: 0.002,inactive: 0.003,inactive: -0.022,inactive: 0.039
BUB1 (UniProt O43683),inactive: -0.025,inactive: -0.102,inactive: 0.124,inactive: -0.109,inactive: 0.04,inactive: 0.043,inactive: 0.062,inactive: 0.07,inactive: -0.01,inactive: -0.023,inactive: -0.021,inactive: 0.04,inactive: -0.2,inactive: -0.208,inactive: 0.001,inactive: 0.188,inactive: 0.07,inactive: 0.016,inactive: -0.183,inactive: 0.255
C9orf40 (UniProt Q8IXQ3),inactive: -0.007,inactive: -0.026,inactive: -0.013,inactive: 0.021,inactive: 0.06,inactive: 0.034,inactive: -0.006,inactive: 0.165,inactive: -0.017,inactive: 0.048,inactive: 0.021,inactive: -0.039,inactive: 0.001,inactive: -0.002,inactive: 0.009,inactive: 0.04,inactive: -0.01,inactive: -0.041,inactive: -0.039,inactive: -0.029
CARD11 (UniProt Q9BXL7),inactive: 0.073,inactive: -0.023,inactive: 0.022,inactive: -0.005,inactive: -0.029,inactive: -0.021,inactive: 0.072,inactive: -0.028,inactive: 0.025,inactive: 0.014,inactive: 0.001,active: -0.287,inactive: -0.018,inactive: -0.025,inactive: 0.029,inactive: -0.035,inactive: -0.021,inactive: 0.028,inactive: -0.059,inactive: 0.038
CA8 (UniProt P35219),inactive: 0.042,inactive: -0.035,inactive: 0.023,inactive: -0.021,inactive: -0.01,inactive: -0.012,inactive: -0.011,inactive: 0.02,inactive: 0.01,inactive: -0.026,inactive: 0.007,inactive: -0.009,inactive: -0.02,inactive: -0.034,inactive: 0.031,inactive: 0.02,inactive: -0.005,inactive: 0.003,inactive: 0.009,inactive: -0.037
CAPN15 (UniProt O75808),inactive: -0.01,inactive: -0.043,inactive: 0.001,inactive: -0.014,inactive: 0.19,inactive: -0.029,inactive: 0.03,inactive: -0.03,inactive: 0.024,inactive: -0.024,inactive: 0.063,inactive: -0.046,inactive: -0.047,inactive: 0.004,inactive: -0.022,inactive: -0.033,inactive: 0.042,inactive: 0.106,inactive: -0.003,inactive: -0.01
C18orf25 (UniProt Q96B23),inactive: -0.014,inactive: 0.123,inactive: 0.034,inactive: 0.084,inactive: 0.041,inactive: -0.005,inactive: -0.067,inactive: 0.019,inactive: -0.027,inactive: 0.029,inactive: 0.017,inactive: -0.003,inactive: -0.049,inactive: 0.022,inactive: -0.046,inactive: 0.019,inactive: -0.029,inactive: 0.019,inactive: -0.023,inactive: -0.098
CAB39 (UniProt Q9Y376),inactive: 0.003,inactive: 0.033,inactive: -0.02,inactive: -0.009,inactive: -0.013,inactive: -0.007,inactive: -0.032,inactive: -0.012,inactive: 0.006,inactive: 0.005,inactive: -0.001,inactive: -0.025,inactive: 0.059,inactive: 0.004,inactive: 0.017,inactive: 0.012,inactive: 0.008,inactive: 0,inactive: 0.009,inactive: -0.019
CAMSAP1 isoform 3 (UniProt Q5T5Y3),inactive: 0.042,inactive: -0.093,inactive: 0.02,inactive: -0.027,inactive: -0.021,inactive: 0.024,inactive: -0.003,inactive: -0.03,inactive: -0.033,inactive: -0.041,inactive: 0.028,inactive: -0.004,inactive: 0.004,inactive: 0.057,inactive: 0.017,inactive: -0.015,inactive: 0.016,inactive: 0.006,inactive: -0.055,inactive: -0.087
C9orf78 (UniProt Q9NZ63),inactive: 0.008,inactive: 0.036,inactive: 0.01,inactive: -0.015,inactive: 0.023,inactive: -0.005,inactive: -0.043,inactive: -0.024,inactive: -0.002,inactive: 0.015,inactive: 0.041,inactive: -0.002,inactive: 0.058,inactive: 0.083,inactive: 0.012,inactive: -0.002,inactive: 0.015,inactive: -0.006,inactive: 0.066,inactive: -0.066

# Copied from the list:
# log2 fold change (alisertib), CAPG (UniProt P40121) reads inactive: -0.045
# log2 fold change (duvelisib), CAPN15 (UniProt O75808) reads inactive: -0.022
